Measured values reported in paper PMC12664589 (Journal of Structural Biology: X, 2025).
pKi: −log10 of the molar value.

Biological target: CpNce103p (Candida parapsilosis, UniProt G8B6R8)
Assay: biochemical

SMILES: CC(=O)Nc1nnc(S(N)(=O)=O)s1 [Compound 1, Acetazolamide, reference compound]
- pKi: 5.92
